These are yes or no findings as the source states them, for the method shown. In cells and extracts the contact can be indirect. Binding calls can cover weak binding; strength is not graded here.
Molecular target: recombinant Mfn1 (GST-Mfn1) (UniProt Q8IWA4)
Test: co-IP; recombinant GST-Mfn1 (25 ng) incubated with recombinant GST-βIIPKC (25 ng) in the presence and absence of PS/DAG/Ca2+ for 30 min at 37 °C; immunoprecipitation with anti-Mfn1 and βIIPKC, western blot; both purified

By UniProt entry, the sequences of proteins in these tests, tags left out. Where a name states a change or a piece, a line headed by the entry shows the natural chain unless it says otherwise. Chains listed by the source or under a name are the forms on record and can include a tag or linker.
UniProt Q8IWA4: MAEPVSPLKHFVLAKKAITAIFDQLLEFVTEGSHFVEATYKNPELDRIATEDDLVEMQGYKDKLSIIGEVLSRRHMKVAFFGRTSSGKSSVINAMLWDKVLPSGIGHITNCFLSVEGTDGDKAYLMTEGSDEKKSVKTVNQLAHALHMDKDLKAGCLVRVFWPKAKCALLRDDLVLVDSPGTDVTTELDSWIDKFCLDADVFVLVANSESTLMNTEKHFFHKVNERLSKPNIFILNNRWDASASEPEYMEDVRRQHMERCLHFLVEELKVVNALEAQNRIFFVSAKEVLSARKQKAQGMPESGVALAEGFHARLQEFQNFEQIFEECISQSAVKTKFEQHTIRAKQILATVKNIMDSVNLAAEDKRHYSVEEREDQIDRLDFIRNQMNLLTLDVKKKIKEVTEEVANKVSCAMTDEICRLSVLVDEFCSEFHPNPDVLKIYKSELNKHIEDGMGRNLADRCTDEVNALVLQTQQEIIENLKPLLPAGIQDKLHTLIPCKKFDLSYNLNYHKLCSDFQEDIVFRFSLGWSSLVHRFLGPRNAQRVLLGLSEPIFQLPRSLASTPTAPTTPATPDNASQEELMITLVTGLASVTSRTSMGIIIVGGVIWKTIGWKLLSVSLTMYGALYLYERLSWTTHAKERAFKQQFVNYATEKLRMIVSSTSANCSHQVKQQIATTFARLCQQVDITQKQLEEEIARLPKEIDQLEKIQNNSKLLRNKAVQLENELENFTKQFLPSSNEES
recombinant βIIPKC (GST-βIIPKC) (P05771-2, form named): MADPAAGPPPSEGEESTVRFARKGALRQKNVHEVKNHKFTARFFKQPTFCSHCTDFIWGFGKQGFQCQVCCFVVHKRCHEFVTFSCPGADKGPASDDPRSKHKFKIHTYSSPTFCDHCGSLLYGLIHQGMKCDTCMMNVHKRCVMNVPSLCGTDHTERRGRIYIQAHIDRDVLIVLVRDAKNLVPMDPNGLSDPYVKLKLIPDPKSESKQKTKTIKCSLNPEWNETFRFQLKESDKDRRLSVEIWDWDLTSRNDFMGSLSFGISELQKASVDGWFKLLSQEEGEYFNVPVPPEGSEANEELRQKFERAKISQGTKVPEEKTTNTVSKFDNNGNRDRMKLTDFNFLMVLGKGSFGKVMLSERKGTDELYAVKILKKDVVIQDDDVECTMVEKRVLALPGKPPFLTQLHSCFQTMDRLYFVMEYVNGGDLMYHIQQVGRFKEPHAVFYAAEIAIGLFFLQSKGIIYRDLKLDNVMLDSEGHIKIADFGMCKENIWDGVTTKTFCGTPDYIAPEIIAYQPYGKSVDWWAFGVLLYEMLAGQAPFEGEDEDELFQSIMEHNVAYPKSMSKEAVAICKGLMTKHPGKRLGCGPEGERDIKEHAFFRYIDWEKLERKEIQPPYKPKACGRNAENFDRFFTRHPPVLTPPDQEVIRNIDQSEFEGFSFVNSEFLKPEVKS

- binding: binds
Substance: recombinant βIIPKC (GST-βIIPKC) (from UniProt P05771-2 1-673) (enzyme)

Reference: PMC6338754
